No constants are given. Whether binding was seen depends on the method and setting. In cells and extracts the contact can be indirect. Some binding calls cover weakened binding; strength is not graded here. Where a sequence is shown, tags or fusion partners need not be part of it.
Molecular target: T1, FLAG-HA-SMYD3 (SET and MYND domain containing protein 3) (human) (UniProt Q9H7B4)
T1 sequence: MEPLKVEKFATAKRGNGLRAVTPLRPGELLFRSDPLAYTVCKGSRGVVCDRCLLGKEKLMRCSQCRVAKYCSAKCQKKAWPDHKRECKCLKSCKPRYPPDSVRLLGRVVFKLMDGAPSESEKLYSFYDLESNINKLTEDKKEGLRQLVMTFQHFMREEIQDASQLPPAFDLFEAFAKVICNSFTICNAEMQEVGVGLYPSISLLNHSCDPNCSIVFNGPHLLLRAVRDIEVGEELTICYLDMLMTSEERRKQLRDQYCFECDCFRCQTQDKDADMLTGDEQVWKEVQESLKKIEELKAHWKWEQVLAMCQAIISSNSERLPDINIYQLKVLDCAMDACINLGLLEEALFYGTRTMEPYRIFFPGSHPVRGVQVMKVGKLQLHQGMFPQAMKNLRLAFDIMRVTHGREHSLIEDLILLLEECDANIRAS
Test: co-IP; the purified FLAG-HA-SMYD3 sample of Figure 2A analysed by immunoblotting; the methods tell of FLAG-tagged SMYD3 in HCT116 whole cell lysates, anti-FLAG Sepharose beads overnight at 4°C, blots with anti-PARP1, anti-SPT16, anti-Nucleolin, anti-H2B and anti-PC4

Sequences of proteins named here, by UniProt entry; tags and fusion partners are left off.
UniProt P09874: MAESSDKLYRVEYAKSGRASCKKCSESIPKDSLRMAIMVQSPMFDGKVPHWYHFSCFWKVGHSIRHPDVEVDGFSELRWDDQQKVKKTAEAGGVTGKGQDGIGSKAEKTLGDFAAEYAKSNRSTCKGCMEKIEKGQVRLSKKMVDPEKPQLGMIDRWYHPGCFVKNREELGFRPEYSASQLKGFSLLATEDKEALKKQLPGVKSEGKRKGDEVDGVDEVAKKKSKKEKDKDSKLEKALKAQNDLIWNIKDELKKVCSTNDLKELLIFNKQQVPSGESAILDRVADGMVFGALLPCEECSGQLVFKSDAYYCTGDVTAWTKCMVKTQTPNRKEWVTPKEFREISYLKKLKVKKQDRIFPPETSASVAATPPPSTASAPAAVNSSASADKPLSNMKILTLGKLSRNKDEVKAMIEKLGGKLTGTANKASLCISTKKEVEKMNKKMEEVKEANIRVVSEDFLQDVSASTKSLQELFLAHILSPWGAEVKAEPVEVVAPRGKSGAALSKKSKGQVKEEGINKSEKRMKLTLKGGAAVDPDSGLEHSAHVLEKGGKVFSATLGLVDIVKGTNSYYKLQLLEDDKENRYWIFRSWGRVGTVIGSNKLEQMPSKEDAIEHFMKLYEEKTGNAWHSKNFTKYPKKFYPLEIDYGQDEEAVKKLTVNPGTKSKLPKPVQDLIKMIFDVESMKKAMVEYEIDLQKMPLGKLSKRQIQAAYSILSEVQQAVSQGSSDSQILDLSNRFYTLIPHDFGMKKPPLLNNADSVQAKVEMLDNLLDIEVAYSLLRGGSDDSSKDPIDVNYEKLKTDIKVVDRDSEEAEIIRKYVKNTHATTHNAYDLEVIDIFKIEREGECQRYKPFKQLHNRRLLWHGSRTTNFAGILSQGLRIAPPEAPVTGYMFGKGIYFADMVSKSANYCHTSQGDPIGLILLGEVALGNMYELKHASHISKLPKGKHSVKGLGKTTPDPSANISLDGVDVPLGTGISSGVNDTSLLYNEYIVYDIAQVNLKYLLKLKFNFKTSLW
UniProt Q9Y5B9: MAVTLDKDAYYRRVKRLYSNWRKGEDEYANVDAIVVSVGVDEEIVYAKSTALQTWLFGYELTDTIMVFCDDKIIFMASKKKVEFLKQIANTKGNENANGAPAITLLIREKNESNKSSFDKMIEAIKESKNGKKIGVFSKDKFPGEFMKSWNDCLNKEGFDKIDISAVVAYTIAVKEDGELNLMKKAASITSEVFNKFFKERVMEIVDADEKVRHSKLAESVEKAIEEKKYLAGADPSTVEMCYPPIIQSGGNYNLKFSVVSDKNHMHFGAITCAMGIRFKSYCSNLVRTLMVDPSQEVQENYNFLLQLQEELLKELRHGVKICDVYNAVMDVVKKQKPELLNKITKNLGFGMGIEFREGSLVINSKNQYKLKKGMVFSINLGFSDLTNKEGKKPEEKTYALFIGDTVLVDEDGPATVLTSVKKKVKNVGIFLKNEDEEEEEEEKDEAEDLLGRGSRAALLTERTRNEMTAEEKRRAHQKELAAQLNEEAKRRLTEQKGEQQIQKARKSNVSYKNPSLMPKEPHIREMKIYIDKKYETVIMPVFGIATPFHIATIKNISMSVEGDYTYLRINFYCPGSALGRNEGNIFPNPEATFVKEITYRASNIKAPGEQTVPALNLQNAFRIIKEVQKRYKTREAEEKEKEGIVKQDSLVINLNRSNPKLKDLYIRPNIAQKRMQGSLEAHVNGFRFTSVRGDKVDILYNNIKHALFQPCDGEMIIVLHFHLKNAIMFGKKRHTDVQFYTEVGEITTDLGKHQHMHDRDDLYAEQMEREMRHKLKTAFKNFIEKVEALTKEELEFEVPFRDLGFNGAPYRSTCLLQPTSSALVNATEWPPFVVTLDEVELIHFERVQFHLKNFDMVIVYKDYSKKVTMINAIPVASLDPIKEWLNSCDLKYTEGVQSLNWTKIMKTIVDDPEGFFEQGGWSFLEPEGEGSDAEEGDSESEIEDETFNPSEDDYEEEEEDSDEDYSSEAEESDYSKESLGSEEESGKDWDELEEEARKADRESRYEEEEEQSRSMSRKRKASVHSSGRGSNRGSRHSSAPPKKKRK

Row | Substance | binding
1 | PARP1 (from UniProt P09874 1-1014) | binds
2 | SPT16 (from UniProt Q9Y5B9 1-1047) | binds

Source: publication PMC4605318
